Measured values reported in PubChem BioAssay AID2685 (National Center for Advancing Translational Sciences (NCATS), 2010).
Some of the results follow. Further columns of the screen follow, without active or inactive calls. Most of these compounds were active or inconclusive in the main read-out, so they are no random draw. Words in brackets tell the shape of the fitted curve; partial curves, single points and poor fits give uncertain potencies.

Assay: qHTS Assay for Lipid Storage Modulators in Drosophila S3 Cells;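 for cell number change: cells counted by Cell Tracker Red CMTPX staining in the red channel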
Conditions: BODIPY lipid droplet fluorescence, 18-24 h; for cell number change: measured here: cell count max response, cells fed with added oleic acid
How it was run: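 Laser-scanning cytometry quantifies lipid droplet accumulation (500–530 nm total intensity; droplet/cell object ratio) in oleic acid-fed (400 uM added) Drosophila S3 cells treated with a concentration series. 20 uM Triacsin C defined 100% inhibition.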

[1] = measured here: cell number channel AC50, cells fed with added oleic acid
[2] = measured here: lipid fluorescence (Fed channel) AC50, cells fed with added oleic acid

Row | Compound | cell number change [%] | AC50 [1] | AC50 [2]
1 | O=C(NCCOc1ccccc1)c1n[nH]c(=O)c2ccccc12 | 108 | 29.1 µM [rising, single point] | 
2 | O=C(O)c1cc2nc(-c3ccccc3)cc(C(F)(F)F)n2n1 | -1.47 |  | 1.03 µM [falling, full curve, poor fit]
3 | CC1CC(=O)C2=C(C1)Nc1ccccc1N=C2 (configuration not stated) | 34.7 |  | 2.59 µM [falling, partial curve]
4 | COC(=O)c1ccc(OC(=O)C2CC(=O)N(c3ccc(C)cc3C)C2)cc1 (configuration not stated) | -17.3 | 0.651 µM [falling, full curve, poor fit] | 0.731 µM [falling, full curve]
5 | COC(=O)C1=C(C)NC2=C(C(=O)CC(c3cccs3)C2)C1c1ccsc1 (configuration not stated) | 5.43 |  | 10.3 µM [rising, partial curve]
6 | COc1ccc(NC(=O)c2ccco2)cc1NC(=O)c1ccccc1F | 298 | 29.1 µM [rising, partial curve] | 
7 | O=C(CCc1ccccc1)NNC(=O)c1ccccc1Cl |  |  | 4.11 µM [rising, single point]
8 | Cc1ccc(Nc2nc(CSc3nnc(-c4cccnc4)n3-c3ccccc3C)cs2)cc1 | 33.4 | 0.291 µM [rising, full curve, poor fit] | 16.4 µM [rising, partial curve, poor fit]
9 | COc1ccc(C(CNC(=O)c2ccc(OC)c(S(=O)(=O)N3CCCC3)c2)N2CCCC2)cc1 (configuration not stated) | -2.71 |  | 
10 | Cc1cccc2c1cnn2C(=O)Nc1ccccc1Br |  |  | 6.51 µM [rising, single point]
11 | Cc1ccc(OCC(=O)Nc2ccc(S(=O)(=O)N3CCCCC3)cc2)c([N+](=O)[O-])n1 |  | 6.51 µM [rising, single point] | 
12 | O=C(NCc1nnc2c(C(F)(F)F)cc(Cl)cn12)c1cccnc1 | -0.382 |  | 6.51 µM [falling, single point]
13 | Cc1cnn(C(=O)Cn2nc(C(F)F)c(Br)c2C)c1 | -30.4 | 16.4 µM [falling, single point] | 32.6 µM [falling, single point]
14 | Cc1noc(C)c1CCC(=O)N1CCCC(CCC(=O)NCc2ccc(F)c(F)c2)C1 (configuration not stated) | -6.11 |  | 
15 | Cc1cc(SCc2cc(=O)n3ccsc3n2)nc2ccccc12 | 98.2 |  | 4.11 µM [rising, single point]
16 | CCCC(=O)NC(=S)Nc1ccc(N2CCN(C(=O)c3cccs3)CC2)cc1 | 13 | 0.82 µM [rising, full curve] | 
17 | O=C(Nc1nc2c(s1)CCCC2)c1cccc(S(=O)(=O)N2CCCc3ccccc32)c1 |  | 0.731 µM [falling, single point] | 
18 | COc1cc2c(cc1NC(=O)c1ccco1)CCCC2 | 24.9 | 0.082 µM [falling, full curve, poor fit] | 20.6 µM [rising, partial curve]
19 | Nc1nnc(SCCCOc2ccc(F)cc2)s1 | 9.73 |  | 

Row | Compound | cell number change [%] | AC50 [1] | AC50 [2]
20 | Cc1nc(SCCOc2ccccc2F)[nH]c(=O)c1Cc1ccccc1 | -46.1 | 18.4 µM [falling, partial curve, poor fit] | 14.6 µM [falling, partial curve, poor fit]
21 | CCCc1cc(=O)[nH]c(-n2[nH]c3c(c2=O)CCCC3)n1 | -14.6 |  | 
22 | O=C(CN1C(=O)c2cccc3cccc1c23)Nc1ccc(S(=O)(=O)N2CCOCC2)cc1 | 7.93 |  | 2.91 µM [rising, partial curve]
23 | O=C(CSCc1ccccc1)N/N=C/c1cc2c(cc1Br)OCO2 | -27.9 |  | 29.1 µM [falling, single point]
24 | O=C(Nc1ccc(Br)cc1)c1ccc2c(c1)OCO2 | 9.34 |  | 
25 | CCCN1C(=O)/C(=N\OCC(=O)Nc2ccc(C(C)C)cc2)c2ccccc21 | 18.5 | 6.51 µM [falling, partial curve, poor fit] | 
26 | COc1ccc2oc(-c3cccc(NC(=O)CSc4ccc(Cl)cc4)c3)nc2c1 | -46.7 | 14.6 µM [falling, partial curve, poor fit] | 16.4 µM [falling, single point]
27 | CCOC(=O)C1CCN(C(=O)CCS(=O)(=O)Cc2ccccc2)CC1 | 19.7 |  | 
28 | Cc1ccc(-n2ncc3c(=O)n(CC(=O)NC4CCCCC4)cnc32)cc1 | 17.5 |  | 20.6 µM [rising, single point]
29 | NC(=O)Cc1ccc2c(c1)[nH]c1ccccc12 | -44.3 | 18.4 µM [falling, single point] | 32.6 µM [falling, single point]
30 | Cc1nnc(SCCn2c(N(C)Cc3ccccc3)nc3c2c(=O)[nH]c(=O)n3C)s1 | 0.425 |  | 20.6 µM [falling, single point]
31 | O=C1N2CCSC2=NC1(Nc1ccccn1)C(F)(F)F (configuration not stated) | -13.9 | 3.66 µM [falling, partial curve, poor fit] | 6.51 µM [falling, partial curve, poor fit]
32 | COc1ccc(S(=O)(=O)N2CCN(C(=O)CCNC(=O)c3ccccc3Cl)CC2)cc1 | 26.7 |  | 16.4 µM [rising, single point]
33 | O=C(CSc1ncn[nH]1)Nc1nsc(-c2ccccc2)n1 | -21.4 |  | 
34 | NC(=O)CC(NC(=O)c1ccc(Br)cc1)c1ccc(N2CCC(Cc3ccccc3)CC2)c([N+](=O)[O-])c1 (configuration not stated) | -20.1 |  | 0.00461 µM [falling, full curve, poor fit]
35 | COc1cccc(NC(=O)CN(C)C(=O)c2c(C)nn(Cc3ccc(C)cc3)c2Cl)c1 | 88.8 | 13 µM [rising, partial curve] | 
36 | Cc1[nH]c2ccccc2c1C1=NNC(=Nc2ccc(F)cc2)SC1 | -35.1 | 29.1 µM [falling, single point] | 29.1 µM [falling, single point]
37 | CCCOc1ccc(/C=N/Nc2ccccc2[N+](=O)[O-])c(OCCC)c1 | -40.5 | 1.84 µM [falling, full curve] | 2.06 µM [falling, full curve]
38 | CCOP(=O)(OCC)c1nc(-c2cccc3ccccc23)oc1N1CCCCC1 | -31.7 |  | 32.6 µM [falling, single point]

Part of the list above in order of molar mass, falling.
Row | Compound | cell number change [%] | AC50 [1] | AC50 [2]
20 | Cc1nc(SCCOc2ccccc2F)[nH]c(=O)c1Cc1ccccc1 | -46.1 | 18.4 µM [falling, partial curve, poor fit] | 14.6 µM [falling, partial curve, poor fit]
31 | O=C1N2CCSC2=NC1(Nc1ccccn1)C(F)(F)F (configuration not stated) | -13.9 | 3.66 µM [falling, partial curve, poor fit] | 6.51 µM [falling, partial curve, poor fit]
21 | CCCc1cc(=O)[nH]c(-n2[nH]c3c(c2=O)CCCC3)n1 | -14.6 |  | 

(cont.)

Row | Compound | cell number change [%] | AC50 [1] | AC50 [2]
39 | COc1ccc(C(NC(=O)c2c(F)c(F)c(F)c(F)c2F)c2ccccc2)cc1 (configuration not stated) | 30.2 | 29.1 µM [rising, single point] | 
40 | C=CCc1ccccc1OCCNCCCOC | -54.7 | 32.6 µM [falling, single point] | 29.1 µM [falling, single point]
41 | Cc1ccc(CSCC(=O)Nc2cc(S(=O)(=O)N3CCOCC3)ccc2OC(C)C)cc1 | 150 | 18.4 µM [rising, partial curve] | 
42 | COc1cc(C(C(=O)NC2CCCCC2)N(Cc2cccs2)C(=O)Cc2c[nH]c3ccccc23)cc(OC)c1OC (configuration not stated) | 1.13 |  | 14.6 µM [rising, single point]
43 | c1cnc(-c2noc(CN3CCN(C4C5CC6CC(C5)CC4C6)CC3)n2)cn1 (configuration not stated) | 0.119 |  | 
44 | CCOC(=O)c1c(NC(=O)CCC(=O)N(CC)CC)sc2c1CC(C)(C)OC2 | -9.71 |  | 18.4 µM [falling, single point]
45 | CN1CCN(CC(=O)N2c3ccccc3C(C)(c3ccc(Cl)cc3)CC2(C)C)CC1 (configuration not stated) | -7.21 |  | 0.731 µM [falling, full curve]
46 | COc1ccc(Cn2c(=O)[nH]c3cc(C(=O)N4CCN(c5ccccn5)CC4)ccc3c2=O)cc1 | 32.8 | 0.00517 µM [rising, full curve, poor fit] | 29.1 µM [rising, single point]
47 | Cc1c(CNCCc2ccc(Cl)cc2)c(C(=O)O)c(C)n1-c1ccccc1 | -31.9 |  | 0.58 µM [falling, single point]
48 | Cc1cc(OCCSc2nnc(-c3cccs3)n2C)ccc1Cl | -31.2 | 0.461 µM [falling, full curve, poor fit] | 23.1 µM [falling, partial curve, poor fit]
49 | COc1ccc(S(=O)(=O)NC2CCc3ccccc32)cc1OC (configuration not stated) | -15.3 |  | 
50 | Cc1ccc(S(=O)(=O)N=Nc2c(O)[nH]c3ccccc23)cc1C | -1.45 |  | 
51 | CCCNC(=O)C(Cc1ccccc1C)NC(=O)c1ccc(C#N)cc1 (configuration not stated) | -6.26 | 0.411 µM [falling, single point] | 0.517 µM [falling, single point]
52 | CCc1ccccc1NC(=O)CN1CCN(C(=O)CN2C(=O)NC3(CCCCC3C)C2=O)CC1 (configuration not stated) | -31.6 | 14.6 µM [falling, partial curve, poor fit] | 6.51 µM [falling, single point]
53 | CCOC(=O)C1=C(CNCc2ccccc2Cl)NC(=O)NC1c1cccc([N+](=O)[O-])c1 (configuration not stated) | 51.4 | 29.1 µM [rising, single point] | 6.51 µM [falling, single point]
54 | CCOc1ccc(N2CC(C(=O)NC(C)C)CC2=O)cc1 (configuration not stated) | -1.44 |  | 
55 | NC(=O)c1ccccc1NC(=O)c1ccoc1 | 3.6 | 4.11 µM [rising, single point] | 2.59 µM [rising, single point]
56 | Cc1ccc2c(c1)c1c(n2CC(O)CNC(CO)(CO)CO)CCCC1 (configuration not stated) | -131 | 32.6 µM [falling, partial curve] | 25.9 µM [falling, partial curve]
57 | NC(=O)C1(N2CCCCC2)CCN(c2ccc3nnc(-c4ccccc4)n3n2)CC1 | -11.5 |  | 16.4 µM [falling, partial curve]
